Test results from patent publication US20250145701A1.
No constants are given. Whether binding was seen depends on the method and setting. Some entries that bind do so weakly or less than the wild type. Where a sequence is shown, tags or fusion partners need not be part of it.

Sequences of proteins named here, by UniProt entry; tags and fusion partners are left off. A change or cut given only in a name is not applied to a line headed by its entry. A line that says so, or that is headed by a name, gives the form on record, which may keep a tag or linker.
human VEGF-A (Example 1) (P15692, form named): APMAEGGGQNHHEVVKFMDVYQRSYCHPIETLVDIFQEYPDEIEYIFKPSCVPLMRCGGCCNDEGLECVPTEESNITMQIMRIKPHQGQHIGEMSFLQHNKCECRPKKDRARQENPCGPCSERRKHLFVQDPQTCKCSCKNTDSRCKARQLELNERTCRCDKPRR

Columns and labels:
[1] = target: human VEGF-A (Example 1) (human) (UniProt P15692); experiment: ELISA, VHH-Fc expression supernatant
[2] = target: T1, mouse VEGF-A (mouse) (UniProt Q00731); experiment: ELISA, VHH-Fc expression supernatant
T1 sequence (looked up): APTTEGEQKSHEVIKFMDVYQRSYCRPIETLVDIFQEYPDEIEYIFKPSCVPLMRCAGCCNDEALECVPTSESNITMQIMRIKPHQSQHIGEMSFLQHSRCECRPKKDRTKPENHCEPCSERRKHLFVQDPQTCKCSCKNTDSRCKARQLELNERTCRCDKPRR

binding [1]: binds
binding [2]: binds
B1: Strain #6 VHH (tested as VHH-Fc) (Fc fusion, not shown: a dimerising Fc or GST)
chain: QVQLQESGGGLVQPGGSLRLSCAASGFTFSTSTMSWYRQAPGKERELVAFITSAGATTNYADSVKDRFTMSRDNDKNTVYLQMNVLKPEDTAMYYCRALVTLWNVYWGQGTQVTVSS
